Taken from: PubChem BioAssay AID1053208 (Peter MacCallum Cancer Centre, 2014)
The deposit covers about 17,000 reagents; shown is a random part of them. In the full data, 788 (4.7%) are marked active. 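Calls rest on z-score classes alone; an extra cut-off of viability at most 70% of control was not applied to them.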 Entries without a mark were called inactive. Further read-outs or replicates are left out here.

Test: 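Find knock-downs that sensitise mouse osteosarcoma cells to doxorubicin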 (primary screen)
System: mouse osteosarcoma cells, early-passage culture from an engineered mouse model of fibroblastic bone tumour
Reagent: siRNA pool against mouse genes, 40 nM
Time to read-out: about 120 h (48 h before drug, then 72 h with drug)
Treatment: doxorubicin 100 nM for 72 h, roughly 30-40% inhibitory dose
Detection: 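Viability read as ATP luminescence after 72 h of 100 nM doxorubicin or none, duplicate wells averaged, scaled to non-targeting siRNA, then expressed as robust z-scores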
Reading the numbers: viability z-score with doxorubicin: higher = more viable cells under doxorubicin; viability z-score without drug: higher = more viable cells with knock-down alone
Active means: 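Called active if knock-down leaves viability unchanged without drug (z within -2 to 2) but lowers it with doxorubicin (z at or under -2)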

Id2 (GeneID 15902) [SID152283264] showed combined z-score class no change with or without drug; viability z-score with doxorubicin -0.67; viability z-score without drug -0.51.
Against Rad51 (GeneID 19361) [SID152285533], the entry reads combined z-score class no change with or without drug; viability z-score with doxorubicin -0.67; viability z-score without drug 0.84.
Efcab14 (GeneID 230648) [SID152313567] gave combined z-score class no change with or without drug; viability z-score with doxorubicin 0; viability z-score without drug 0.84.
With knock-down of Etnppl (GeneID 71760) [SID152267774], the screen gave combined z-score class no change with or without drug; viability z-score with doxorubicin -0.22; viability z-score without drug 1.18.
Against Tlk2 (GeneID 24086) [SID152313589] the deposit lists combined z-score class no change with or without drug; viability z-score with doxorubicin 0; viability z-score without drug 0.84.
For Kifbp (GeneID 72320) [SID152288927], the entry reads combined z-score class no change with or without drug; viability z-score with doxorubicin 1.24; viability z-score without drug 1.35.
Against Pms2 (GeneID 18861) [SID152300451], the entry reads combined z-score class no change with or without drug; viability z-score with doxorubicin 1.35; viability z-score without drug 0.67.
For Calhm2 (GeneID 72691) [SID152327517] the deposit lists combined z-score class no change with or without drug; viability z-score with doxorubicin 0.34; viability z-score without drug 1.52.
Mdh1 (GeneID 17449) [SID152263475] gave combined z-score class high cell count with and without drug; viability z-score with doxorubicin 3.48; viability z-score without drug 2.02.
Hgsnat (GeneID 52120) [SID152277156] scored combined z-score class no change with or without drug; viability z-score with doxorubicin -0.22; viability z-score without drug 0.51.
Against Zdhhc12 (GeneID 66220) [SID152259454], the entry reads combined z-score class no change with or without drug; viability z-score with doxorubicin 1.46; viability z-score without drug 0.34.
Knock-down of Taf6 (GeneID 21343) [SID152263348] gave: combined z-score class no change with or without drug; viability z-score with doxorubicin -0.56; viability z-score without drug -1.35.
With knock-down of Olfml2a (GeneID 241327) [SID152330079], the screen gave combined z-score class low cell count without drug only; viability z-score with doxorubicin -1.35; viability z-score without drug -2.02.
Dido1 (GeneID 23856) [SID152302393] gave combined z-score class low cell count with and without drug; viability z-score with doxorubicin -2.59; viability z-score without drug -2.36.
Dido1 (GeneID 23856) [SID152313721] gave combined z-score class no change with or without drug; viability z-score with doxorubicin 0; viability z-score without drug 0.84.
Against Rffl (GeneID 67338) [SID152274037], the entry reads combined z-score class no change with or without drug; viability z-score with doxorubicin -0.67; viability z-score without drug -0.34.
After knock-down of Fes (GeneID 14159) [SID152294963], the record shows combined z-score class no change with or without drug; viability z-score with doxorubicin -1.12; viability z-score without drug 0.34.
With knock-down of Bcl2l12 (GeneID 75736) [SID152286625], the screen gave combined z-score class no change with or without drug; viability z-score with doxorubicin -0.22; viability z-score without drug -0.34.

2 consecutive reagents already listed, quoted:
Rad51 (GeneID 19361) [SID152285533]: combined z-score class = no change with or without drug; viability z-score with doxorubicin = -0.67; viability z-score without drug = 0.84
Efcab14 (GeneID 230648) [SID152313567]: combined z-score class = no change with or without drug; viability z-score with doxorubicin = 0; viability z-score without drug = 0.84

The listing continues:
With knock-down of Tnfsf15 (GeneID 326623) [SID152285153], the record shows combined z-score class no change with or without drug; viability z-score with doxorubicin 0.22; viability z-score without drug 0.17.
Silencing of Qrich1 (GeneID 69232) [SID152276529] resulted in: combined z-score class no change with or without drug; viability z-score with doxorubicin -0.22; viability z-score without drug 1.85.
1700082M22Rik (GeneID 105243269) [SID152282343] showed combined z-score class no change with or without drug; viability z-score with doxorubicin -0.67; viability z-score without drug 1.18.
Ankrd46 (GeneID 68839) [SID152339245] gave combined z-score class no change with or without drug; viability z-score with doxorubicin -0.22; viability z-score without drug 0.34.
After knock-down of Tfeb (GeneID 21425) [SID152332952], the screen gave combined z-score class no change with or without drug; viability z-score with doxorubicin 0.45; viability z-score without drug 1.18.
Depletion of Stard13 (GeneID 243362) [SID152261528] resulted in: combined z-score class no change with or without drug; viability z-score with doxorubicin -0.34; viability z-score without drug -0.17.
Prcc (GeneID 94315) [SID152334719] showed combined z-score class no change with or without drug; viability z-score with doxorubicin 0.45; viability z-score without drug 1.35.
Against Socs5 (GeneID 56468) [SID152259249], the entry reads combined z-score class high cell count with doxorubicin only; viability z-score with doxorubicin 2.59; viability z-score without drug -0.17.
Depletion of Hipk1 (GeneID 15257) [SID152331320] resulted in: combined z-score class no change with or without drug; viability z-score with doxorubicin 0.11; viability z-score without drug 1.18.
For Prb1a (GeneID 381833) [SID152337289] the deposit lists combined z-score class no change with or without drug; viability z-score with doxorubicin 1.01; viability z-score without drug 0.84.
